Measurements reported in PubChem BioAssay AID1259425 (University of Nebraska Medical Center, 2018)

Purpose: 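Find knockdowns that reproduce the gene expression pattern seen when KSR1 is lost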 (primary screen)
System: HCT116 human colon cancer cells
Knock-down reagent: siRNA pool against human genes, 50 nM siRNA
Read-out: 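mRNA of six signature genes measured together by branched-DNA assay after 50 nM siRNA pool, blank removed, divided by geometric mean of two housekeeping genes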
Scale: BNIP3L mRNA: higher = more BNIP3L transcript after knockdown; NDRG1 mRNA: higher = more NDRG1 transcript after knockdown; BNIP3 mRNA: higher = more BNIP3 transcript after knockdown; ALDOC mRNA: higher = more ALDOC transcript after knockdown; ACSL5 mRNA: higher = more ACSL5 transcript after knockdown
The deposit covers about 14,000 reagents; below is an unselected part. Not given: the time to read-out.

no.	Target gene	BNIP3L mRNA, set 1	NDRG1 mRNA, set 1	BNIP3 mRNA, set 1	ALDOC mRNA, set 1	ACSL5 mRNA, set 1
1	USP36 (ubiquitin specific peptidase 36)	0.0855	0.13	0.243	0.0284	0.28
2	CDH8 (cadherin 8)	0.0604	0.123	0.187	0.0127	0.134
3	ARL15 (ARF like GTPase 15)	0.11	0.153	0.205	0.0327	0.118
4	GPAT3 (glycerol-3-phosphate acyltransferase 3)	0.117	0.122	0.22	0.0292	0.158
5	HMGCS2 (3-hydroxy-3-methylglutaryl-CoA synthase 2)	0.0499	0.429	0.172	0.00798	0.268
6	CD200R1 (CD200 receptor 1)	0.112	0.203	0.292	0.0333	0.207
7	GSK3A (glycogen synthase kinase 3 alpha)	0.104	0.0775	0.379	0.00699	0.336
8	EML1 (EMAP like 1)	0.1	0.122	0.346	0.0303	0.162
9	ERCC6L2 (ERCC excision repair 6 like 2)	0.114	0.108	0.292	0.0499	0.161
10	SEMA4B (semaphorin 4B)	0.15	0.542	0.413	0.0603	0.23
11	CASP1 (caspase 1)	0.0716	0.469	0.289	0.0268	0.0691
12	TNMD (tenomodulin)	0.101	0.37	0.252	0.0231	0.318
13	TPRXL (tetrapeptide repeat homeobox like (pseudogene))	0.247	0.0767	0.432	0.0109	0.132
14	REN (renin)	0.191	0.395	0.344	0.0322	0.263
15	ZNF571 (zinc finger protein 571)	0.105	0.113	0.215	0.0147	0.229
16	CMPK1 (cytidine/uridine monophosphate kinase 1)	0.0724	0.111	0.265	0.0117	0.163
17	MAP7D1 (MAP7 domain containing 1)	0.133	0.175	0.382	0.0148	0.0996
18	BTBD10 (BTB domain containing 10)	0.154	0.209	0.11	0.159	0.217
19	H1-3 (H1.3 linker histone, cluster member)	0.0769	0.0761	0.262	0.0225	0.0794
20	GPA33 (glycoprotein A33)	0.152	0.129	0.287	0.0988	0.128
21	ITGA5 (integrin subunit alpha 5)	0.0742	0.159	0.188	0.0178	0.0837
22	GCG (glucagon)	0.282	0.21	0.338	0.0512	0.276
23	WDR13 (WD repeat domain 13)	0.287	0.797	0.308	0.041	0.321
24	ROR2 (ROR family WNT receptor 2)	0.181	0.172	0.383	0.0239	0.296
25	TRIM56 (tripartite motif containing 56)	0.114	0.204	0.277	0.0408	0.124
26	ITIH3 (inter-alpha-trypsin inhibitor heavy chain 3)	0.1	0.165	0.242	0.024	0.172
27	AOX1 (aldehyde oxidase 1)	0.0629	0.161	0.248	0.0184	0.18
28	CASP8 (caspase 8)	0.0753	0.156	0.223	0.0183	0.166
29	TUBGCP6 (tubulin gamma complex component 6)	0.0991	0.0902	0.298	0.0272	0.109
30	INPP5A (inositol polyphosphate-5-phosphatase A)	0.0833	0.32	0.227	0.0182	0.132
31	SNRPN (small nuclear ribonucleoprotein polypeptide N)	0.138	0.252	0.344	0.026	0.195
32	CDX1 (caudal type homeobox 1)	0.129	0.353	0.272	-0.00089	0.226
33	ULBP1 (UL16 binding protein 1)	0.194	0.33	0.419	0.0291	0.13
34	CFHR3 (complement factor H related 3)	0.142	0.46	0.23	0.0244	0.221

Laid out differently: entries from further up.
Target gene | BNIP3L mRNA, set 1 | NDRG1 mRNA, set 1 | BNIP3 mRNA, set 1 | ALDOC mRNA, set 1 | ACSL5 mRNA, set 1
MAP7D1 (MAP7 domain containing 1) | 0.133 | 0.175 | 0.382 | 0.0148 | 0.0996
BTBD10 (BTB domain containing 10) | 0.154 | 0.209 | 0.11 | 0.159 | 0.217
H1-3 (H1.3 linker histone, cluster member) | 0.0769 | 0.0761 | 0.262 | 0.0225 | 0.0794
GPA33 (glycoprotein A33) | 0.152 | 0.129 | 0.287 | 0.0988 | 0.128
ITGA5 (integrin subunit alpha 5) | 0.0742 | 0.159 | 0.188 | 0.0178 | 0.0837
